Consider nine targets from the supplement of paper PMC12819154, “High-throughput peptide-centric local stability assay extends protein–ligand identification to membrane proteins, tissues and bacteria” (Nature Structural & Molecular Biology, 2025).

By UniProt entry, the sequences of proteins in these tests, tags left out. Where a name states a change or a piece, a line headed by the entry shows the natural chain unless it says otherwise.
UniProt Q96FW1, whole entry: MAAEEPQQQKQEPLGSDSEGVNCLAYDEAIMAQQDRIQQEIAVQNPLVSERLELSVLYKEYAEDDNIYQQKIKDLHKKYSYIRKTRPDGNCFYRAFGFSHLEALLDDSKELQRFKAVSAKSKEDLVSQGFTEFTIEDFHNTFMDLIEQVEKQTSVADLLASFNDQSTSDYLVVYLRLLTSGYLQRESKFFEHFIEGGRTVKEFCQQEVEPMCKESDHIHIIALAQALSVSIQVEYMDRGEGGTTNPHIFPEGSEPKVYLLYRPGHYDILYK
UniProt Q96CW6: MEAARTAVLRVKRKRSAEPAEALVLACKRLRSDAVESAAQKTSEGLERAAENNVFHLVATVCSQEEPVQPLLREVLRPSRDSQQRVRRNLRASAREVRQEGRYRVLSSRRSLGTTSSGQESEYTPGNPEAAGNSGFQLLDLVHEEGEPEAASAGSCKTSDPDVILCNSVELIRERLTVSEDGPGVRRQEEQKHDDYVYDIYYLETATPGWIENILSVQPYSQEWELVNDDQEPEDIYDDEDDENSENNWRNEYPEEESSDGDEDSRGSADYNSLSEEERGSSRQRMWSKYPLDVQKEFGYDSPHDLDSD
UniProt Q96A47: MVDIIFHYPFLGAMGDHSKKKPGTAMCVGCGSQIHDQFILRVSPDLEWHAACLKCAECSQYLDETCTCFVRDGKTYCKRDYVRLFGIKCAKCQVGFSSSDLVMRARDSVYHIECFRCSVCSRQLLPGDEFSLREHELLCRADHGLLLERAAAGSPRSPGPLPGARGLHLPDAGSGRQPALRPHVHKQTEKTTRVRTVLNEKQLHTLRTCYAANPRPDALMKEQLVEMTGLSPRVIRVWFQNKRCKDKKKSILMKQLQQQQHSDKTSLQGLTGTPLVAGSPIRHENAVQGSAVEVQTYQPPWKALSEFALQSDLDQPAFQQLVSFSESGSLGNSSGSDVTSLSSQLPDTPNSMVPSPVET
UniProt Q96BN2: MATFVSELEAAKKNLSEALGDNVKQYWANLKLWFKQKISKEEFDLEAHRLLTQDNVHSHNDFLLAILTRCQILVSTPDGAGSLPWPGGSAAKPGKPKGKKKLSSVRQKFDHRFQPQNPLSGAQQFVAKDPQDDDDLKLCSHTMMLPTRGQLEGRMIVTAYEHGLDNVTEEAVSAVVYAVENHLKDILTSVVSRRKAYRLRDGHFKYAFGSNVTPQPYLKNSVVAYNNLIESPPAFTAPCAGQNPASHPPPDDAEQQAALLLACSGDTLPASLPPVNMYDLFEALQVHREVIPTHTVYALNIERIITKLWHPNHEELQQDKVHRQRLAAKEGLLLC
UniProt Q93050, whole entry: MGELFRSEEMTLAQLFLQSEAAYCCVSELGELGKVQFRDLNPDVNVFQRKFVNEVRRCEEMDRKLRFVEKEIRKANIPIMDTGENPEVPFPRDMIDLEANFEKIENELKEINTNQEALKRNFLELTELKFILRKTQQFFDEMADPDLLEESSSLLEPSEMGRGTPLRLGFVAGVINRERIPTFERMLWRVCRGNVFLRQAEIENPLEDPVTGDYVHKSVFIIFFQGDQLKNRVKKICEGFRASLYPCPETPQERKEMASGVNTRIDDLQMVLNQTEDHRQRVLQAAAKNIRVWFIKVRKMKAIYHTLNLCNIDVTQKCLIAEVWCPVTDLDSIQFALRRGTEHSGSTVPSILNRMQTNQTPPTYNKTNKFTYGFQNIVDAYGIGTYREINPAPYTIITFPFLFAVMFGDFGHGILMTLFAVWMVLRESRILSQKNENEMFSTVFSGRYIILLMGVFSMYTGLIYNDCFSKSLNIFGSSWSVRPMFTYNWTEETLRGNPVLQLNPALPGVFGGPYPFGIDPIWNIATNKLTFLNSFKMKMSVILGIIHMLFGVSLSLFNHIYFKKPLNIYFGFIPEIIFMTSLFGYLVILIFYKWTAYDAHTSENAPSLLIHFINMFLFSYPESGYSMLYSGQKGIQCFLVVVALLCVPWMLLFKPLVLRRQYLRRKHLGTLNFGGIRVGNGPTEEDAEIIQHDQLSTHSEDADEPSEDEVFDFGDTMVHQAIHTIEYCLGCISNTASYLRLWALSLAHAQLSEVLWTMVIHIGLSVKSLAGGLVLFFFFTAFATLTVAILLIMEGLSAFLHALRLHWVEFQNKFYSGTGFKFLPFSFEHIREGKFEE
UniProt Q96B45: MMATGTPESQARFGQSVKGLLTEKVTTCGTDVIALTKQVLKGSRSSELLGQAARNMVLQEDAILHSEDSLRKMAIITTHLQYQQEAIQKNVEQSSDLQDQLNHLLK
UniProt Q96BS2: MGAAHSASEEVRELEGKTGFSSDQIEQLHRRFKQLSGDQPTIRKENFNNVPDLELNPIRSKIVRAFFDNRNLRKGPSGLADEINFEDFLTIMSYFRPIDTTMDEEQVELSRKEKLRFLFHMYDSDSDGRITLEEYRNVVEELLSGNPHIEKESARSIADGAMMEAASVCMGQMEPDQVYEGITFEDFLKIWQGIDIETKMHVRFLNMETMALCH
UniProt Q96E22: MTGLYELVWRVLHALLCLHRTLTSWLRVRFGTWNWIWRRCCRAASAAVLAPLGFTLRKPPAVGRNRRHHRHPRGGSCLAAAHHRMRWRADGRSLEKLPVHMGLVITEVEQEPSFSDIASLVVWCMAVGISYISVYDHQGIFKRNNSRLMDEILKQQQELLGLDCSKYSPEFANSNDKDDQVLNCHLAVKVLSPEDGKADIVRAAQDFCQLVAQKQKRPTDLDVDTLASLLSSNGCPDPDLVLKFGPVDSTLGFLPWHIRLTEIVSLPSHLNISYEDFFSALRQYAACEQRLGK
UniProt Q92994: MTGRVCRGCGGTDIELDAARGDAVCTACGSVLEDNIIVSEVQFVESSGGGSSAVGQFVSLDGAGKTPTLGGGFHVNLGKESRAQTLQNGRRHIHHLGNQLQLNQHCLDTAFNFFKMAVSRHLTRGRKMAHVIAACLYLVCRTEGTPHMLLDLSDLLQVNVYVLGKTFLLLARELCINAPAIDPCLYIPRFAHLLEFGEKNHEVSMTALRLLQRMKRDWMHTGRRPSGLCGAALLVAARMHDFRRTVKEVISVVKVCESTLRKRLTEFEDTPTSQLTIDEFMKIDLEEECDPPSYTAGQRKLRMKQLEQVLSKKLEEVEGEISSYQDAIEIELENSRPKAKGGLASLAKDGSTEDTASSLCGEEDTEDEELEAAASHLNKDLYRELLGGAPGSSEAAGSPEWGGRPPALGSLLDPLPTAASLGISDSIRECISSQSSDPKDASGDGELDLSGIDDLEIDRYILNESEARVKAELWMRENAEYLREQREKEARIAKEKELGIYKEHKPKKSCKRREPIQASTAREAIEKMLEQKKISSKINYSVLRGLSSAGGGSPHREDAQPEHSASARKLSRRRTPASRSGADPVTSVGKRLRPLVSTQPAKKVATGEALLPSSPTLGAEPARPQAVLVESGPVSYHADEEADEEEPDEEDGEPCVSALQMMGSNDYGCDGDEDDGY

The list shows a part of the results. Most entries show no effect beyond the scatter of the controls.

Compound in the assay: CN[C@@H]1C[C@H]2O[C@@](C)([C@@H]1OC)n1c3ccccc3c3c4c(c5c6ccccc6n2c5c31)C(=O)NC4 [staurosporine]
As to the kind of experiment: log2 fold change of tryptic peptide abundance, ligand vs vehicle (limited proteolysis) (log2 ratio); higher = more trypsin-susceptible (destabilized). Conditions: ligand concentration: 20 uM; sample: K562 cleared lysate; digestion: 4 min, 22 C (HT-PELSA RT4min, Orbitrap Astral).
Regarding “OTUB1 (peptide sequence: AFGFSHLEALLDDSKELQR, peptide start residue: 95) (UniProt Q96FW1)”, the log2 fold change was 0.0782.

For the target “SLC7A6OS (peptide sequence: YPLDVQK, peptide start residue: 290) (UniProt Q96CW6)”, the log2 fold change is -0.375.

Turning to “ISL2 (peptide sequence: QLQQQQHSDK, peptide start residue: 255) (UniProt Q96A47)”, the log2 fold change is 0.223.

On to “UniProt Q96BN2 (peptide sequence: LLTQDNVHSHNDFLLAILTR, peptide start residue: 50)”, for which the log2 fold change was -0.0917.

On to “ATP6V0A1 (peptide sequence: HLGTLNFGGIR, peptide start residue: 667) (UniProt Q93050)”, for which the log2 fold change was -0.0157.

In the case of “UniProt Q96B45 (peptide sequence: NVEQSSDLQDQLNHLLK, peptide start residue: 90)”, the log2 fold change is -0.127.

For “TESC (peptide sequence: FLFHMYDSDSDGR, peptide start residue: 117) (UniProt Q96BS2)”, the log2 fold change is -0.141.

In the case of “NUS1 (peptide sequence: FGPVDSTLGFLPWHIR, peptide start residue: 244) (UniProt Q96E22)”, the log2 fold change was -0.11.

As for “BRF1 (peptide sequence: EDAQPEHSASAR, peptide start residue: 557) (UniProt Q92994)”, the log2 fold change was found to be 1.28.
